Source: paper doi:10.1101/2022.12.12.520165
No constants are given. Whether binding was seen depends on the method and setting. For part of these data: In cells and extracts the contact can be indirect. Some entries that bind do so weakly or less than the wild type.

The chains behind the UniProt entries cited, without tags or fusion partners. Where a name states a change or a piece, a line headed by the entry shows the natural chain unless it says otherwise. Residues count along the entry.
UniProt Q7Z5G4, whole entry: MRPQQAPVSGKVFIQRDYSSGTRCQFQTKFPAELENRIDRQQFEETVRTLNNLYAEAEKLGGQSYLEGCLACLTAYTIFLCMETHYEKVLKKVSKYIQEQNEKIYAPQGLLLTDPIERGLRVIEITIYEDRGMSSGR
UniProt Q9Y397, 1-305: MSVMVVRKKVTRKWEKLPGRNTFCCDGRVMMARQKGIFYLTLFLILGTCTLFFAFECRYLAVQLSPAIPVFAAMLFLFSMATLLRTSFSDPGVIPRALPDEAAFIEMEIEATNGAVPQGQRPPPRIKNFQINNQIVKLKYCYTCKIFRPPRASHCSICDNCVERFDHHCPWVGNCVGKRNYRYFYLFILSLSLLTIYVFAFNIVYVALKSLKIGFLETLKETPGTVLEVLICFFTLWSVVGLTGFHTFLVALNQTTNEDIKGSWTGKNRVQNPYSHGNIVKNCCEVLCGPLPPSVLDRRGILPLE
UniProt Q9Y397, whole entry, looked up, stated change not applied: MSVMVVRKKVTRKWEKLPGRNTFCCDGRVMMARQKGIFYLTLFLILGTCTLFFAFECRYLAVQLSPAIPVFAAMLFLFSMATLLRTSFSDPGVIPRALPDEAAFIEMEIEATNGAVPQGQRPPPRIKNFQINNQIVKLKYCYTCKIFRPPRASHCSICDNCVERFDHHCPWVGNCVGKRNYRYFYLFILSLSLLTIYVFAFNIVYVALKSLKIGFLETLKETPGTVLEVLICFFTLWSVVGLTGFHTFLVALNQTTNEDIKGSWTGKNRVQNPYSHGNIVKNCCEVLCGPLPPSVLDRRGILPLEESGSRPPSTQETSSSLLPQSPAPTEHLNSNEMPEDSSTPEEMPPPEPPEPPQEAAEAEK
UniProt Q8IZN3, whole entry: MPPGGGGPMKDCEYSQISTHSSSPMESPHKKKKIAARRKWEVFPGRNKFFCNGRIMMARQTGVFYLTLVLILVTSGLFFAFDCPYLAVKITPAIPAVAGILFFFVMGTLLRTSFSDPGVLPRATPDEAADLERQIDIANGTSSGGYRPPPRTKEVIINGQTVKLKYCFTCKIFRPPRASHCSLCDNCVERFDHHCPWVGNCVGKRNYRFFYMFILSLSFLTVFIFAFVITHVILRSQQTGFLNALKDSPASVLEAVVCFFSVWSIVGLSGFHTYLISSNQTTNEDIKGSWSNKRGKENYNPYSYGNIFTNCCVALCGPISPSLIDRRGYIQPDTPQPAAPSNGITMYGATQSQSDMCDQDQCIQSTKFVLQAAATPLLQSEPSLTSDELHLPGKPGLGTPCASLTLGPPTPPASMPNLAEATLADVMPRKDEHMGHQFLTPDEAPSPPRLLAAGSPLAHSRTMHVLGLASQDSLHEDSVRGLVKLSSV

Assays:
[1] = molecular target: GCP16 (human) (UniProt Q7Z5G4); test: co-purification
[2] = molecular target: GCP16 with a N-terminal His tag (human) (UniProt Q7Z5G4); test: pull-down + SEC

Substance	binding [1]	binding [2]
C169A catalytic dead mutant of DHHC9 (from UniProt Q9Y397 1-364) (enzyme)	binds	–
DHHC14 with a C-terminal FLAG tag (from UniProt Q8IZN3 1-488) (enzyme)	–	binds
truncated form (residues 1-305) of DHHC9 (from UniProt Q9Y397 1-305) (domain or fragment)	binds	–
